Publication PMC10457402

The chains behind the UniProt entries cited, without tags or fusion partners.
UniProt Q9BUL5: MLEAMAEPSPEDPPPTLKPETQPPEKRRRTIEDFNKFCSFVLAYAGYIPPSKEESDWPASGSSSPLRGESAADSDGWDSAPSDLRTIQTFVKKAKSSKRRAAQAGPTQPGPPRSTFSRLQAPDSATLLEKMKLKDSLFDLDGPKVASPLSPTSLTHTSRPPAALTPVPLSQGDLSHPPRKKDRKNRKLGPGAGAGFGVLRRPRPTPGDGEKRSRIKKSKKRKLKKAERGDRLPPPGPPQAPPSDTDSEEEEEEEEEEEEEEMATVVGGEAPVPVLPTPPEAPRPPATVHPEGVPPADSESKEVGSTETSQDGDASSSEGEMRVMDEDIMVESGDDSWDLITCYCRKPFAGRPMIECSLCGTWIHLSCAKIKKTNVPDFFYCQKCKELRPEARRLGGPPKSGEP
UniProt O43707: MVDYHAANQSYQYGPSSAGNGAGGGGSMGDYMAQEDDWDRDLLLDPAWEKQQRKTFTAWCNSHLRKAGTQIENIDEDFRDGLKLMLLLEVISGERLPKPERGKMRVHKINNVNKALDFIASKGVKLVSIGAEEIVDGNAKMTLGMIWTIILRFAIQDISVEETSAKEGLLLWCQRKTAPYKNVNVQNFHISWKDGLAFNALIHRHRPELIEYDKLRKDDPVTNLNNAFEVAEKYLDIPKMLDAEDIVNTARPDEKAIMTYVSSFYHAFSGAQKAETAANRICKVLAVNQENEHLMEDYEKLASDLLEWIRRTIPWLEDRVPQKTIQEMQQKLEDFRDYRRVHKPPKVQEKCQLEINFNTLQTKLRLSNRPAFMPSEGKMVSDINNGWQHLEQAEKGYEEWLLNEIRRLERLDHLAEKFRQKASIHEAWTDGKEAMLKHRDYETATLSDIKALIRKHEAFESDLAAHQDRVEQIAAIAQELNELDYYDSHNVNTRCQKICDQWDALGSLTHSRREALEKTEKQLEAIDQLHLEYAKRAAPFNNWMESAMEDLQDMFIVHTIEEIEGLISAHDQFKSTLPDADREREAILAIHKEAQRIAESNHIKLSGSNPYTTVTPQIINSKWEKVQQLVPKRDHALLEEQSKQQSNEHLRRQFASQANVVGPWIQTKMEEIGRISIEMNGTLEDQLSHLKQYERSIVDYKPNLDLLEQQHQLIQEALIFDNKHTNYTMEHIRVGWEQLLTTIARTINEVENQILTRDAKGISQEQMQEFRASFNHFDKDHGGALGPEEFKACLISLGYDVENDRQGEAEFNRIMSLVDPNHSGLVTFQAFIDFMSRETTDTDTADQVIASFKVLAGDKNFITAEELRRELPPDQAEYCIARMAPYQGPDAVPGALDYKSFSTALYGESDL

Molecular target: Plant homologous structural domain finger protein 23 (PHF23) (human) (UniProt Q9BUL5)
Assay: affinity purification with mass spectrometry; H1299 cells; pulled down by the PHF23 antibody, SDS-PAGE with Coomassie staining, mass spectrometry

binding: binds
Substance: Alpha-actinin-4 (ACTN4) (from UniProt O43707 1-911)

These are yes or no findings as the source states them, for the method shown. Binding seen in cells or lysates may run through a third protein. Here binding means that the protein was enriched with, or labelled near, the bait; the list need not be complete.
